These are yes or no findings as the source states them, for the method shown. Some results given as binding are weak or reduced against the parent protein; the word gives no strength. Where a sequence is shown, tags or fusion partners need not be part of it.
Key:
Experiment in all cases: co-purification through two affinity steps; MBP-eIF2A-His6 (wild type or deletion mutant) purified from E. coli lysate on cobalt resin by the His6 tag, then on amylose resin by the MBP tag; GroEL seen by SDS-PAGE and Coomassie stain and identified by mass spectrometry
[1] = target: T1, MBP-eIF2A(1-437)-His6 (human) (UniProt Q9BY44)
T1 sequence: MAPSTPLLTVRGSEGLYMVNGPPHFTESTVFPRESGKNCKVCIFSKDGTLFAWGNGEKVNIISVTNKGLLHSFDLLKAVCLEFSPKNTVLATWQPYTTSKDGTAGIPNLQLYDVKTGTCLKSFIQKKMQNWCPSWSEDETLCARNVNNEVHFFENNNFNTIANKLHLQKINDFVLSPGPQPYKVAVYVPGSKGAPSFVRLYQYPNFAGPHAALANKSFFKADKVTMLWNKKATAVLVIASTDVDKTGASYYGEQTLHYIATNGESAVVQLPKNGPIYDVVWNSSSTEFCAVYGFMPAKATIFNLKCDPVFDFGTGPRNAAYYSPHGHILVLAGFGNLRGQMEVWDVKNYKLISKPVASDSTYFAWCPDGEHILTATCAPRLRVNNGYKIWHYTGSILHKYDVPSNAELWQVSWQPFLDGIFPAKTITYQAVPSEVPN

Protein sequences, listed by entry. Tags and fused reporters are not part of them.
UniProt P0A6F5: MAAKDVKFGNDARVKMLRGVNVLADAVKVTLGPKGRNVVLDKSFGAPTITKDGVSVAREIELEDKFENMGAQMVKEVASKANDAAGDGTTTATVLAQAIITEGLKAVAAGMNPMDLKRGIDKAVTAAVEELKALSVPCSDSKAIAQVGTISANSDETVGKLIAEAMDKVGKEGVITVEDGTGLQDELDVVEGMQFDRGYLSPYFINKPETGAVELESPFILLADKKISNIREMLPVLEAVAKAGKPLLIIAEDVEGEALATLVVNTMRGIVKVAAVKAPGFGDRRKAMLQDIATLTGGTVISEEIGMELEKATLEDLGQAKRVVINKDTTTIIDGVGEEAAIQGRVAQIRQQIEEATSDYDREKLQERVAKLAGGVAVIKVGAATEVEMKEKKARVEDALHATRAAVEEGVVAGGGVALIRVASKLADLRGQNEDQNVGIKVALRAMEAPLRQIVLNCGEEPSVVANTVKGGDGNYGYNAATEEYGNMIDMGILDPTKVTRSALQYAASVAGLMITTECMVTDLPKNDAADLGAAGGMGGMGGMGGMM

[2] = target: T2, MBP-eIF2A(1-480)-His6 (human) (UniProt Q9BY44)
T2 sequence: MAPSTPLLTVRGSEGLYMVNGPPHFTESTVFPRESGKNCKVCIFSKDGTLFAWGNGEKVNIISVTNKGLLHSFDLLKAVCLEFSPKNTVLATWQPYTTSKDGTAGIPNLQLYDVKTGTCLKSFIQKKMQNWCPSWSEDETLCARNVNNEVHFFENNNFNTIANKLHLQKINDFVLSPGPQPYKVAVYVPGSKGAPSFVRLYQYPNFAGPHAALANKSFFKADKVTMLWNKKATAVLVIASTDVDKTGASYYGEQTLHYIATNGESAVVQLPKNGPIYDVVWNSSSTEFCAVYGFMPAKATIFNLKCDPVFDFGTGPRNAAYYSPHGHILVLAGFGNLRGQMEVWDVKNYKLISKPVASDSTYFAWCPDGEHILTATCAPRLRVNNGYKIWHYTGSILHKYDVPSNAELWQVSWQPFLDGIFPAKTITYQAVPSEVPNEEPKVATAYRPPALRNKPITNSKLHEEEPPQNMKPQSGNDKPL

[3] = target: T3, MBP-eIF2A(416-585)-His6 (human) (UniProt Q9BY44)
T3 sequence: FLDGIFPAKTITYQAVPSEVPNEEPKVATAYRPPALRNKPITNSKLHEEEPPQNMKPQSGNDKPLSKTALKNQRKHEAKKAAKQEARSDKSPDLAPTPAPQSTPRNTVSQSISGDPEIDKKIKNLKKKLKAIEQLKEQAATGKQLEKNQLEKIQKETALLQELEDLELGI

MBP-eIF2A-His6 (human) = target: T4, MBP-eIF2A-His6 (human) (UniProt Q9BY44)
T4 sequence: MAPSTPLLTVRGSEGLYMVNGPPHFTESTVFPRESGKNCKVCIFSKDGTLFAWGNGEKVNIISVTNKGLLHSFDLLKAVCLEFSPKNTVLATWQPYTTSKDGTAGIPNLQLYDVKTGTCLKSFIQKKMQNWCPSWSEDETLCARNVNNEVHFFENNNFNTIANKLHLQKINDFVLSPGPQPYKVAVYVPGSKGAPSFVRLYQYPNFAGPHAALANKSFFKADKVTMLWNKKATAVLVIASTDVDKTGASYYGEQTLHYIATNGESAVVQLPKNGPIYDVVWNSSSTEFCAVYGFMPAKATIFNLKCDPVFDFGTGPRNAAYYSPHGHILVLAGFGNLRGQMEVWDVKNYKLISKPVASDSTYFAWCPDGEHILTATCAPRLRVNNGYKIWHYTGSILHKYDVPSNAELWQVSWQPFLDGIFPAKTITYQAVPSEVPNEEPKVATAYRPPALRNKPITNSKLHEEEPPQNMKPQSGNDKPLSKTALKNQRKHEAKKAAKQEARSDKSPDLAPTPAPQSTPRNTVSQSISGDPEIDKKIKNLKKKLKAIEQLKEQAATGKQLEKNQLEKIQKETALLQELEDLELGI

[4] = target: T5, MBP-eIF2A(1-437, GGS linker, 529-556)-His6 (human) (UniProt Q9BY44)
T5 sequence: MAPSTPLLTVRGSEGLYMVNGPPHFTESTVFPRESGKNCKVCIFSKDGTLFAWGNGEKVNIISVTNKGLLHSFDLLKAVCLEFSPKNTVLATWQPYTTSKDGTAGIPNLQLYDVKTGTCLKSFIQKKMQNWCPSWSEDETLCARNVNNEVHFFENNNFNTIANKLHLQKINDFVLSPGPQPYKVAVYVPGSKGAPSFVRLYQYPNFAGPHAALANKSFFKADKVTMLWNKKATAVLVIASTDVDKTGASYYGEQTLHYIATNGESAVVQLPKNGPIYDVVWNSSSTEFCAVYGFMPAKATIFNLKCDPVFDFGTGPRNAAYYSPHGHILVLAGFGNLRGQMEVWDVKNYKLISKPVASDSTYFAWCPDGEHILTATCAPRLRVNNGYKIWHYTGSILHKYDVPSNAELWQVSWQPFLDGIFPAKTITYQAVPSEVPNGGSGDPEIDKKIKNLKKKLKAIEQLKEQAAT

[5] = target: T6, MBP-eIF2A(1-430)-His6 (human) (UniProt Q9BY44)
T6 sequence: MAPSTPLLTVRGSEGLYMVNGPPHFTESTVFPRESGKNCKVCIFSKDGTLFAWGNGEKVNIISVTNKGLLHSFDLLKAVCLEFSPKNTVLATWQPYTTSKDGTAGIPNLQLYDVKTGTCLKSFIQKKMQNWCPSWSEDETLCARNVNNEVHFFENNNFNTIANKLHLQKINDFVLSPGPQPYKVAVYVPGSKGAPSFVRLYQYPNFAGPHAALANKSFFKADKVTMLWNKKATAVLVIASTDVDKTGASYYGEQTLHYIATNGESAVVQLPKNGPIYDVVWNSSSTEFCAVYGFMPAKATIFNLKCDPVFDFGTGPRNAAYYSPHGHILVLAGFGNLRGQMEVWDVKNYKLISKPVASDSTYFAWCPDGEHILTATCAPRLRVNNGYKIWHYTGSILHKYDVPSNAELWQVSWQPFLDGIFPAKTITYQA

[6] = target: T7, MBP-eIF2A(533-585)-His6 (human) (UniProt Q9BY44)
T7 sequence: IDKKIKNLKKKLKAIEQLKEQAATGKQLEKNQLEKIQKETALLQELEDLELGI

[7] = target: T8, MBP-eIF2A(1-471)-His6 (human) (UniProt Q9BY44)
T8 sequence: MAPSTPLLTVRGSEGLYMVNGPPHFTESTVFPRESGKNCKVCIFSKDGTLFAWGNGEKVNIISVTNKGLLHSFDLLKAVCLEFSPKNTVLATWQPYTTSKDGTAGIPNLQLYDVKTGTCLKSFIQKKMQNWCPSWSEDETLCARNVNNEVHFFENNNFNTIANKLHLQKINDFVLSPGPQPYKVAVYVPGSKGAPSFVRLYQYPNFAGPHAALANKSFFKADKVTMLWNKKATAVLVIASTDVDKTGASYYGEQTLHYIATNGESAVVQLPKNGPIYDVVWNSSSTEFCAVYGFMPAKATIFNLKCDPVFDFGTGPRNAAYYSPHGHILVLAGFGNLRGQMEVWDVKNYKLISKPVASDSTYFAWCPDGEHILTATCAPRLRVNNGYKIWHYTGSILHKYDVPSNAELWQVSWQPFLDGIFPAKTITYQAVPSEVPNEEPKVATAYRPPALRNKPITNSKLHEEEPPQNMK

[8] = target: T9, MBP-eIF2A(1-415)-His6 (human) (UniProt Q9BY44)
T9 sequence: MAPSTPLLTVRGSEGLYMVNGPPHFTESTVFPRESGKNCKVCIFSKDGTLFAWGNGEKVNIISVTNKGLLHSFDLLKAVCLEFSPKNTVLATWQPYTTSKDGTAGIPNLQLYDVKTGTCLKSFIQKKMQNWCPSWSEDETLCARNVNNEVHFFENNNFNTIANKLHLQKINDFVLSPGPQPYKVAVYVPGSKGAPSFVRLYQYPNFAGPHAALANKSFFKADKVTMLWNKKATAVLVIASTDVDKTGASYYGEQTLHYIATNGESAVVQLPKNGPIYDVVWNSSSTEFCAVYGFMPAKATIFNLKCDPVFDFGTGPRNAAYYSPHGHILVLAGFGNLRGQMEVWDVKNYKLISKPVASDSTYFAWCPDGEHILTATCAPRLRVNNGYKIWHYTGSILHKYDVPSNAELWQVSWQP

[9] = target: T10, MBP-eIF2A(1-437, GGS linker, 504-556)-His6 (human) (UniProt Q9BY44)
T10 sequence: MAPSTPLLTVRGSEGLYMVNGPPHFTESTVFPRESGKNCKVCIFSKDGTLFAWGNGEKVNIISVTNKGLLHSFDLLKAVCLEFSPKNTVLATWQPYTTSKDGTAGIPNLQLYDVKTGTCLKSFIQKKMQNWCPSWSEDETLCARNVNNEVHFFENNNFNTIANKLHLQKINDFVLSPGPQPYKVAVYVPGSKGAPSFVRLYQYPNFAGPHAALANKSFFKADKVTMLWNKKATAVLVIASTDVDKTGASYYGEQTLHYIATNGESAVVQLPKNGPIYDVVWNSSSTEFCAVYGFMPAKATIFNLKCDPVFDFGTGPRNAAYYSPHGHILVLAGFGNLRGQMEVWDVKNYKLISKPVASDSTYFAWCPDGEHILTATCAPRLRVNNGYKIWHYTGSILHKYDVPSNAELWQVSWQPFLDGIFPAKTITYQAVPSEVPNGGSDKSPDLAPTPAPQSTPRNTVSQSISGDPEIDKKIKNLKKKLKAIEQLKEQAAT

Measured: binding

E. coli GroEL chaperone (from UniProt P0A6F5 1-548)
binds: all assays above
